# PMC12040169 (PLOS Biology, 2025)
# The other results are listed elsewhere or left out.
# Test system: T1, CTL2-GFP (C. trachomatis L2/434/Bu, GFP-expressing)
# T1 construct: L2/434/Bu, GFP-expressing
# Design: species or system HeLa; Intracellular C. trachomatis growth in HeLa cells, bulk GFP fluorescence relative to DMSO
# Conditions: bulk GFP, single well; 28.5 h, 10 µM; inhibitor
row,SMILES,% of control remaining [%]
1,O=C(c1cncnc1)N1CCCc2ccccc21 [CBK200259],105.786
2,CN(C)S(=O)(=O)N1CCC(C(=O)O)(c2ccccc2)CC1 [CBK286681],156.67
3,O=C(Nc1nnc(-c2ccco2)o1)c1ccc2c(c1)CCCC2 [CBK287425],178.378
4,Cc1ccc(-c2nnc(N3CCN(S(=O)(=O)c4ccc(Cl)cc4)CC3)c3ccccc23)cc1 [CBK266759],146.249
5,CCOC(=O)C1(Cc2cc(-c3ccc(F)cc3)no2)CCCNC1 (stereo not shown) [CBK284579],147.13
6,CC(C)(c1ccccc1)c1ccc(OCc2ccc(S(=O)(=O)N3CCOCC3)cc2)cc1 [CBK267407],153.162
7,Cc1ccc(N(CC(=O)Nc2cc(Cl)ccc2C)S(C)(=O)=O)cc1 [CBK264030],109.954
8,CCN(CC)CCN1CCN(c2cc(-c3ccc(SC)cc3)ncn2)CC1 [CBK091203],196.802
9,c1cc(-c2ccc(OC3CCNCC3)cc2)c2cccnc2c1 [CBK103528T],82.5661
10,CC(C)(O)C#Cc1ccc(C(=O)NC(Cc2c[nH]c3ccccc23)C(=O)O)cc1 (stereo not shown) [CBK267703],102.874
11,O=C(c1ccccc1)c1cc(Cl)ccc1-n1ccnc1Br [CBK016011],91.1735
12,O=C(O)CCN1C(=O)/C(=C/c2ccc(C(=O)O)cc2)SC1=S [CBK262785],136.648
13,COCCN(CC1CC1)C(=O)c1cc(NC(C)=O)ccc1Cl [CBK304352],116.79
14,CN1CCN(CC(=O)Nc2cc(C(F)(F)F)ccc2Cl)C(C)(C)C1 [CBK306363],133.863
15,c1cncc(Nc2cccc(-c3cnc4ccccc4c3)n2)c1 [CBK037638],129.085
16,CC1(C)CC(N2CNC(=N)N(C#N)C2)CC(C)(C)N1 [CBK262008],103.269
17,COc1ccc(C(=O)Nc2nnc(C3=COCCO3)o2)cc1 [CBK287409],156.757
18,CC(=O)N1CCN(C[C@@H]2C=C(C)[C@H](Cc3nnc(C(C)(C)C)o3)C[C@H]2C(C)C)CC1 [CBK289221],137.432
19,CC1CCc2nc(NC(=O)Cn3cc(C(=O)Nc4ccc(F)cc4)ccc3=O)sc2C1 (stereo not shown) [CBK286053],134.208
20,Cc1cc(C)cc(CNC(=O)NCCc2cccs2)c1 [CBK043459],151.783
21,Cc1cc(NC(=O)CN2CCC(Cc3ccccc3)CC2)nc2c1c(=O)oc1ccccc12 [CBK291261],139.873
22,O=C(CC(NC1CCCCC1)C(=O)O)Nc1cccc(Cl)c1 (stereo not shown) [CBK266916],141.17
23,Cc1ccc2c(c1)OC(C)(C)CC2NC(=O)C1CCN(C)CC1 (stereo not shown) [CBK307626],106.985
24,O=C(CNS(=O)(=O)Cc1ccccc1[N+](=O)[O-])N1CCOCC1 [CBK042220],121.298
25,Cc1ccc2c(c1)cc(C)c1nn(CC(=O)NC(C)(C)C)c(=O)n12 [CBK283875],115.108
26,C=CCn1c2ccccc2c2nnc(SCC(=O)Nc3c(C)n(C)n(-c4ccccc4)c3=O)nc21 [CBK263892],137.173
27,COc1ccc(-c2nnc(SCC(=O)c3ccc(C)o3)o2)cc1 [CBK268334],110.998

row,SMILES,% of control remaining [%]
1,C=CCN(c1ccccc1)S(=O)(=O)c1ccc(C(C)(C)CC)cc1 [CBK200036],112.041
2,O=C1CN(Cc2ccc3ccccc3n2)CCN1C1CCCC1 [CBK281961],88.4772
3,CCOC(=O)N1CCC(NS(=O)(=O)c2ccc(C)c([N+](=O)[O-])c2)CC1 [CBK045468],113.438
4,O=C(NCc1cccc(C(F)(F)F)c1)c1cnoc1-c1ccc(Br)cc1 [CBK153718],118.629
5,O=C(NCc1ccc2c(c1)CCN2C(=O)c1ccncc1)c1cccnc1 [CBK288585],92.6178
6,O=C(COc1cccc2ccccc12)Nc1cccnc1 [CBK263015],94.5364
7,O=c1[nH]cc(S(=O)(=O)N2CCN(Cc3ccccc3Cl)CC2)c(=O)[nH]1 [CBK285889],119.335
8,COc1cc(-c2nnc(NC(=O)c3ccc(C)cc3)o2)cc(OC)c1OC [CBK287699],119.913
9,CC(C)C(=O)Nc1ccc(Oc2ccc(C(=O)O)c(C(=O)O)c2)cc1 [CBK263463],100
10,O=C(CSCc1ccc(Cl)cc1)Nc1ccc(S(=O)(=O)N2CCCCCC2)cc1 [CBK267017],46.8711
11,O=C(CSCc1cccc2ccccc12)Nc1c[nH]c(=O)[nH]c1=O [CBK268500],131.598
12,O=C(O)c1ccc(NC(=O)c2cc(-n3cnnc3)ccc2Cl)cc1 [CBK286613],79.8507
13,COc1ccc2oc(-c3ccc(NC(=O)c4cccc5ccccc45)cc3)nc2c1 [CBK267610],84.5451
14,Cc1ccc(C2NS(=O)(=O)NC2=N)cc1 (stereo not shown) [CBK263848],109.992
15,CC1Cc2ccccc2N1C(=O)Cn1c(=O)n(C)c2ncccc21 (stereo not shown) [CBK283793],122.908
16,O=C(Nc1ccccc1N1CCCNCC1)c1ccnc2ccccc12 [CBK036325T],116.283
17,CSc1nsc(SCC(=O)N(c2ccccc2)c2ccccc2)n1 [CBK269361],145.654
18,COc1cc(OC)cc(C(=O)Nc2ncccc2OCCCC#N)c1 [CBK304899],154.315
19,CS(=O)(=O)N(CC(=O)N1CCN(Cc2ccc3c(c2)OCO3)CC1)c1cccc(F)c1 [CBK074572],91.2691
20,COCC(=O)N1CC[C@H](c2nnc(-c3ccncc3)o2)C1 [CBK289413],131.005
21,Cc1nc2c(c(C)c1CC(=O)NCc1cccc(C#N)c1)c(=O)[nH]n2C [CBK304959],128.012
22,COc1ccc(C(=O)CCC(=O)Nc2cccnc2)c(OC)c1 [CBK266923],133.626
23,CC(C)C[C@H](NC(=O)OC(C)(C)C)C(=O)N1CCC(C(=O)O)CC1 [CBK286742],139.75
24,O=[N+]([O-])c1ccccc1N/N=C/c1c[nH]c2ccccc12 [CBK261679],100
25,COc1ccc(CC(=O)N2CCC[C@@H](N)[C@@H]2c2ccccc2F)cc1 [CBK283456],118.984
26,CSc1ccc(NS(=O)(=O)c2ccc(NC(C)=O)c(Cl)c2)cc1 [CBK043566],93.1095
27,COc1ccc(C(NC(=O)c2cccc(OC)c2)c2cc(Cl)c3cccnc3c2O)cc1 (stereo not shown) [CBK264027],100

row,SMILES,% of control remaining [%]
1,COc1ccc(CCNC(=O)CC2Sc3ccc(C(F)(F)F)cc3NC2=O)cc1OC (stereo not shown) [CBK265341],91.4963
2,O=C(NCCCO)c1cc2ccccc2[nH]1 [CBK267638],133.498
3,Cc1ccc(C)c(S(=O)(=O)NCC(=O)Nc2nsc(-c3ccccc3)n2)c1 [CBK267304],91.2908
4,O=S(=O)(c1ccc(NC(=S)NCc2cccnc2)cc1)N1CCOCC1 [CBK268396],119.606
5,CCc1ccc(-c2cnccc2-n2ccnc2)cc1 [CBK177151],155.771
6,CC(=O)N(C)c1nc(-c2cccc(N(C)C)c2)ccc1C(=O)NCCc1ccc(S(N)(=O)=O)cc1 [CBK076578],123.411
7,O=C(C1=C(O)C(=O)N(CCCn2ccnc2)C1c1cccs1)c1ccc2c(c1)OCCO2 (stereo not shown) [CBK266170],147.177
8,CN(C)CCNc1ncnc2sc3c(c12)CCC3 [CBK265347],100
9,COc1ccc(CO)cc1OCc1ccccc1 [CBK051334],130.162
10,O=C(/C=C\c1cccs1)NC(=S)Nc1ccc([N+](=O)[O-])cc1O [CBK261231],103.291
11,OCCOc1cccnc1OCC1CC1 [CBK001461],121.08
12,CCCn1c(SCC(=O)Nc2cc(C(C)(C)C)no2)n[nH]c1=O [CBK295648],149.213
13,O=C(O)Cn1nc(-c2ccccc2)c2ccccc2c1=O [CBK287249],104.311
14,Cc1nc(C(=O)NC2CC(=O)N(CCc3ccc(F)cc3)C2)cs1 (stereo not shown) [CBK307473],150.205
15,Cc1cc(-c2c(C)n(-c3ccccc3)[nH]c2=O)n2ncnc2n1 [CBK288441],136.923
16,Cc1nc(N2CCCCC2)ncc1C(=O)NCCSc1nncn1C [CBK306955],182.304
17,COc1ccc(C(C)C)cc1-c1cc2ncccc2nc1N [CBK081202],103.488
18,O=C(c1ccc(CO)o1)N1CCn2cc(C(F)(F)F)nc2C1 [CBK283914],128.061
19,Cc1cc(=O)nc(N/C(N)=N/c2cccc([N+](=O)[O-])c2)[nH]1 [CBK264857],94.3675
20,CCOC(=O)c1c(C)n(-c2ccccc2)c2ccc(O)c(CN(C)C)c12 [CBK261593C],51.5655
21,FC(F)(F)c1ccc(CN2CCCC3(C2)NCCc2c3[nH]c3ccccc23)cc1 (stereo not shown) [CBK040095],98.8497
22,N#CCCN(Cc1cccnc1)C(=O)Cc1noc2ccccc12 [CBK304001],84.1328
23,O=C(Nc1ccc2ncccc2c1)c1ccoc1 [CBK159823],116.689
24,Cn1cc([C@H]2C[C@@H](O)[C@@H](CO)O2)c(=O)n(C)c1=O [CBK201272],182.914
25,Fc1ccc(-c2ccc(CNCc3ccncc3)o2)cc1 [CBK270158C],125.586

# Three consecutive compounds already listed, quoted:
row,SMILES,% of control remaining [%]
16,Cc1nc(N2CCCCC2)ncc1C(=O)NCCSc1nncn1C [CBK306955],182.304
17,COc1ccc(C(C)C)cc1-c1cc2ncccc2nc1N [CBK081202],103.488
18,O=C(c1ccc(CO)o1)N1CCn2cc(C(F)(F)F)nc2C1 [CBK283914],128.061
